Reference: PubChem BioAssay AID1347076 (National Center for Advancing Translational Sciences (NCATS), 2019)
In all, about 400,000 compounds went through this assay and about 13,000 (3.2%) were called active. Inconclusive results, whose numbers are uncertain, are shown with a selection of clear calls. The call rests on the fitted dose curve; in most records, active means well fitted cell-killing curve with a large enough effect; inconclusive means small, poorly fitted or top-dose-only effect, or effect the other way; inactive means flat fitted curve, though single readings scatter. Potencies of inconclusive entries are doubtful fits and often do not repeat.

assay: qHTS assay for MDR1-selective chemotherapeutics: Primary screen using the drug-selected MDR subline cells KB-V1; conditions: KB-V1 MDR cells viability, CellTiter-Glo, 72 h; activity change, negative = cytotoxicity: at 46.1 µM (top of the series); further: nearly all actives have a fitted effect of over 60% in size
Procedure, shortened: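 qHTS viability screen in drug-selected KB-V1 MDR cells: 72 h compound treatment at 37 degrees C, ATP luminescence end point.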
On the % scale 0 is the no-effect control and ±100 the full control effect; potency means the concentration at half of the fitted maximal effect.

| Compound | activity change, negative = cytotoxicity | Potency |
| --- | --- | --- |
| O=C(NCCNc1ccc([N+](=O)[O-])cc1)c1cccc(Br)c1 | inactive: 9.98% |  |
| N#Cc1ccc(C(=O)N/N=C/c2cn(CC(=O)O)c3ccccc23)c(F)c1 | inactive: -15% |  |
| CCOC(=O)C1=Nc2ccccc2C1=[N+]=[N-] |  | active: 2.59 µM |
| COc1ccccc1C(=O)N/C(=C\c1ccccc1)C(=O)NC(C)C(=O)O (stereo not drawn) |  | inconclusive: 16.4 µM [rising, single point] |
| C/C=C/c1ccc(OCCn2nnc3ccccc32)c(OC)c1 |  | inconclusive: 18.4 µM [cytotoxic, single point] |
| COc1ccc([C@H]2CC(=O)C=C(c3ccc(Oc4ccccc4)cc3)C2)cc1OC |  | inconclusive: 20.6 µM [cytotoxic, single point] |
| COC(=O)c1sccc1NC(=O)CSc1ccc(Cl)cc1 |  | active: 23.1 µM |
| Cc1nnc(SCC(=O)N2CC(=O)Nc3ccccc32)n1Cc1ccccc1 | inactive: 9.62% |  |
| CCOC(=O)N1CCC(NC(=O)CNS(=O)(=O)c2ccc(Br)s2)CC1 |  | inconclusive: 29.1 µM [cytotoxic, single point] |
| CCN(CC)S(=O)(=O)c1cccc(NC(=O)c2ccc(-n3nc(C)cc3C)cc2)c1 |  | active: 2.91 µM |
| COc1cc2c(cc1OC)C(COc1ccc3c(C)cc(=O)oc3c1)N(C(=O)c1ccccc1C)CC2 (stereo not drawn) | inactive: -2.47% |  |
| COc1ccc(NC(=O)CSc2nc3sc(C)cc3c(=O)n2C)c(OC)c1 |  | active: 8.2 µM |
| CCOC(=O)c1cc(-c2csc(Nc3c(C)cc(C)cc3C)n2)on1 |  | inconclusive: 29.1 µM [cytotoxic, single point] |
| CCOC(=O)N1CCN(C(=O)CS(=O)(=O)c2cn(Cc3cccc(F)c3)c3ccccc23)CC1 |  | inconclusive: 16.4 µM [cytotoxic, partial curve] |
| CN1C(=O)c2ccccc2Sc2ccc(NC(=O)N3CCN(c4ccccc4)CC3)cc21 |  | inconclusive: 14.6 µM [cytotoxic, partial curve, poor fit] |
| COc1ccccc1/C=C/C(=O)NCCc1ccccn1 | inactive: 26.5% |  |
| O=C(NCCNc1ccc([N+](=O)[O-])cc1)c1ccccc1F |  | inconclusive: 2.91 µM [cytotoxic, partial curve, poor fit] |
| CCOc1ccc(-n2c(=O)[nH]cc(C(=O)Nc3ccc(OC)c(OC)c3)c2=O)cc1 | inactive: 7.95% |  |
| O=C(NCc1ccccc1)c1cccn1-c1nnc(N2CCCC2)s1 | inactive: -7.2% |  |
| COc1ccc(S[C@@H](CCN2CC[C@H](C)CCC2=O)c2ccccc2)cc1 |  | inconclusive: 11.6 µM [cytotoxic, partial curve] |
| Cc1noc(C)c1CSc1nc2sc(C)c(C)c2c(=O)n1-c1ccccc1 | inactive: -6% |  |
| CN(Cc1ccccc1)C(=O)COC(=O)c1ccccc1SCC(=O)N1CCCC1 |  | inconclusive: 20.6 µM [cytotoxic, partial curve] |
| Cc1nc(C)c(C(=O)C2=C(O)C(=O)N(CCCn3ccnc3)C2c2ccccc2)s1 (stereo not drawn) |  | inconclusive: 23.1 µM [rising, single point] |
| O=C(Nn1cc(C(=O)Nc2ccc(F)cc2F)c2ccccc2c1=O)c1cnccn1 |  | inconclusive: 2.31 µM [cytotoxic, full curve] |
| CC(NCc1ccc2c(c1)OCO2)C(=O)N1CCc2ccccc21 (stereo not drawn) |  | active: 5.17 µM |

Shown with bars between the fields: entries from further up.
Compound | activity change, negative = cytotoxicity | Potency
O=C(NCCNc1ccc([N+](=O)[O-])cc1)c1cccc(Br)c1 | inactive: 9.98% | 
CCOC(=O)C1=Nc2ccccc2C1=[N+]=[N-] |  | active: 2.59 µM
C/C=C/c1ccc(OCCn2nnc3ccccc32)c(OC)c1 |  | inconclusive: 18.4 µM [cytotoxic, single point]
COc1ccc([C@H]2CC(=O)C=C(c3ccc(Oc4ccccc4)cc3)C2)cc1OC |  | inconclusive: 20.6 µM [cytotoxic, single point]
COC(=O)c1sccc1NC(=O)CSc1ccc(Cl)cc1 |  | active: 23.1 µM
CCOC(=O)N1CCC(NC(=O)CNS(=O)(=O)c2ccc(Br)s2)CC1 |  | inconclusive: 29.1 µM [cytotoxic, single point]
COc1cc2c(cc1OC)C(COc1ccc3c(C)cc(=O)oc3c1)N(C(=O)c1ccccc1C)CC2 (stereo not drawn) | inactive: -2.47% | 
COc1ccc(NC(=O)CSc2nc3sc(C)cc3c(=O)n2C)c(OC)c1 |  | active: 8.2 µM
CCOC(=O)c1cc(-c2csc(Nc3c(C)cc(C)cc3C)n2)on1 |  | inconclusive: 29.1 µM [cytotoxic, single point]
CN1C(=O)c2ccccc2Sc2ccc(NC(=O)N3CCN(c4ccccc4)CC3)cc21 |  | inconclusive: 14.6 µM [cytotoxic, partial curve, poor fit]
COc1ccccc1/C=C/C(=O)NCCc1ccccn1 | inactive: 26.5% | 
O=C(NCCNc1ccc([N+](=O)[O-])cc1)c1ccccc1F |  | inconclusive: 2.91 µM [cytotoxic, partial curve, poor fit]
CCOc1ccc(-n2c(=O)[nH]cc(C(=O)Nc3ccc(OC)c(OC)c3)c2=O)cc1 | inactive: 7.95% | 
O=C(NCc1ccccc1)c1cccn1-c1nnc(N2CCCC2)s1 | inactive: -7.2% | 
COc1ccc(S[C@@H](CCN2CC[C@H](C)CCC2=O)c2ccccc2)cc1 |  | inconclusive: 11.6 µM [cytotoxic, partial curve]
Cc1noc(C)c1CSc1nc2sc(C)c(C)c2c(=O)n1-c1ccccc1 | inactive: -6% | 
CN(Cc1ccccc1)C(=O)COC(=O)c1ccccc1SCC(=O)N1CCCC1 |  | inconclusive: 20.6 µM [cytotoxic, partial curve]
Cc1nc(C)c(C(=O)C2=C(O)C(=O)N(CCCn3ccnc3)C2c2ccccc2)s1 (stereo not drawn) |  | inconclusive: 23.1 µM [rising, single point]
O=C(Nn1cc(C(=O)Nc2ccc(F)cc2F)c2ccccc2c1=O)c1cnccn1 |  | inconclusive: 2.31 µM [cytotoxic, full curve]
CC(NCc1ccc2c(c1)OCO2)C(=O)N1CCc2ccccc21 (stereo not drawn) |  | active: 5.17 µM

(more compounds)

| Compound | activity change, negative = cytotoxicity | Potency |
| --- | --- | --- |
| COC(=O)c1c(NC(=O)c2ccco2)sc2c1C(C(=O)OC)CC2 (stereo not drawn) |  | active: 18.4 µM |
| CC(C)=CC(O)C/C(C)=C/COc1ccc2ccc(=O)oc2c1 (stereo not drawn) |  | active: 13 µM |
| O=C1CC(c2ccccc2)SC(N(c2ccccc2)c2ccccc2)=N1 (stereo not drawn) |  | inconclusive: 16.4 µM [cytotoxic, partial curve] |
| CC(C)C(=O)NC(=S)Nc1ccc(CN2CCOCC2)cc1 | inconclusive: -19.9% |  |
| Cc1ccc(Cl)cc1N1CCN(C(=O)CCC(=O)O)CC1 | inactive: -10.8% |  |
| CCOc1ccc(Br)cc1S(=O)(=O)Nc1cccc(S(=O)(=O)N(C)c2ccccc2)c1 |  | active: 4.11 µM |
| CCN(CC)CCNCC(=O)N1c2ccccc2CCc2ccc(NC(=O)OC)cc21 |  | inconclusive: 29.1 µM [rising, single point] |
| CC(=O)N1CCc2cc(S(=O)(=O)NC(Cc3ccccc3)C(=O)Nc3cc(C)ccc3C)ccc21 (stereo not drawn) | inactive: -9.77% |  |
| Cc1ccc(C)c(NC(=O)C2C(c3ccccc3)C2(Cl)Cl)c1 (stereo not drawn) |  | inconclusive: 29.1 µM [cytotoxic, single point] |
| COc1ccc2c(CC(=O)N3CCN(S(=O)(=O)c4cccs4)CC3)coc2c1 |  | inconclusive: 32.6 µM [cytotoxic, single point] |
| O=C1NC[C@H](CCCCN2C[C@H](Cc3ccccc3)N(CC3CCCCC3)C(=O)C2=O)N(CCC2CCCCC2)C1=O |  | inconclusive: 29.1 µM [rising, single point] |
| NC(=O)C1CCN(CC(=O)Nc2cc(S(=O)(=O)N3CCOCC3)ccc2N2CCCC2)CC1 |  | inconclusive: 23.1 µM [rising, single point] |
| CC1COC(c2cccn2Cc2ccccc2Cl)=N1 (stereo not drawn) |  | inconclusive: 7.31 µM [rising, partial curve, poor fit] |
| Cc1oc(-c2cccs2)nc1CN1CCC(CO)(CCOc2ccccc2)CC1 |  | inconclusive: 0.0146 µM [cytotoxic, full curve] |
| Cc1cc(C(=O)N2CCC2(C)C(=O)NS(=O)(=O)c2ccccc2Cl)nn1C (stereo not drawn) | inactive: -0.14% |  |
| Cc1cccc(-n2c(CCCN3C(=O)c4ccccc4C3=O)nc3ccccc3c2=O)n1 |  | inconclusive: 18.4 µM [rising, single point] |
| COc1ccc(-c2csc(C(NC(C)=O)c3cccc(OC)c3)n2)cc1 (stereo not drawn) | inactive: 6.05% |  |
| O=c1/c(=C\c2ccc(O)cc2)sc2nc(-c3ccccc3)c(-c3ccccc3)n12 | inactive: -1.6% |  |
| CCCC(=O)NCCc1nc2ccccc2n1CC(=O)c1ccccc1 | inactive: -28.3% |  |
| COc1ccccc1NC(=O)c1ccc(-n2cncn2)nc1 |  | inconclusive: 29.1 µM [rising, single point] |
| COc1ccccc1N(C)S(=O)(=O)c1ccc(C(=O)Nc2ccc3nc(C)sc3c2)cc1 |  | active: 23.1 µM |
| Cc1nn(C)c(C(=O)N2CCc3ccccc32)c1Br |  | inconclusive: 18.4 µM [cytotoxic, single point] |
| COc1cccc(N2C(=O)C(CC(=O)Nc3ccc(F)cc3)N(C3CCCCC3)C2=O)c1 (stereo not drawn) |  | inconclusive: 9.2 µM [cytotoxic, partial curve] |
| NC(=S)NN=C1CCCCCCCC1 | inactive: 0% |  |
| Cn1c(CNC(=O)c2ccccc2)nnc1SCC(=O)Nc1nccs1 | inactive: 5.93% |  |

| Compound | activity change, negative = cytotoxicity | Potency |
| --- | --- | --- |
| CCC/C(=N/NC(=O)c1csc(C)c1C)c1ccc(Cl)s1 | inactive: -6.24% |  |
| CC(C)N(CC(=O)Nc1ccc(Cl)cc1C(F)(F)F)C(=O)CCl |  | inconclusive: 18.4 µM [cytotoxic, partial curve, poor fit] |
| Cc1ccc(Nc2nc(C(=O)N3CCC(C(=O)NC(C)C)CC3)cs2)cc1 |  | inconclusive: 23.1 µM [cytotoxic, partial curve, poor fit] |
| CS(=O)(=O)c1ccc(Cl)c(NC(=O)CCl)c1 |  | active: 20.6 µM |
| NC(=O)c1ncn([C@@H]2O[C@H](CNCc3ccc(-c4cc(C(F)(F)F)ccc4Cl)o3)[C@@H](O)[C@H]2O)n1 | inactive: -6.61% |  |
| COc1ccc2cc(C(=O)C3CCCN(Cc4cccc(C)n4)C3)ccc2c1 (stereo not drawn) | inactive: -24% |  |
| CCCc1nc(SCC(=O)Nc2ccc(S(=O)(=O)N(C)C)cc2)c2ccccc2n1 |  | inconclusive: 9.2 µM [cytotoxic, partial curve, poor fit] |
| COc1ccc(-c2nc3ccccc3n3c(-c4ccccc4)c4c(=O)n(C)c(=O)n(C)c4c23)cc1OC | inactive: 0.684% |  |
| COc1cc(CN2C[C@@H](CO)O[C@@H](n3cnc4c(N5CCCC5)ncnc43)C2)cc(OC)c1OC | inactive: 6.38% |  |
| CCN(CC)S(=O)(=O)c1ccc(Cl)c(NC(=O)COC(=O)c2cccn2C)c1 |  | active: 14.6 µM |
| Cc1cc(C)cc(C(=O)N2CC(=O)Nc3ccccc32)c1 |  | active: 3.26 µM |
| COc1ccc(-c2c(C)c3ccc(O)c(CN4CCCC4)c3oc2=O)cc1OC |  | inconclusive: 11.6 µM [cytotoxic, partial curve, poor fit] |
| CCOc1ccc(NS(=O)(=O)c2cc(C)c(C)cc2C)cc1 |  | inconclusive: 23.1 µM [cytotoxic, single point] |
| COc1ccc(C2C(C#N)=C(N)Oc3cc(C)[nH]c(=O)c32)cc1OC (stereo not drawn) | inactive: -18.5% |  |
| CCC(Cc1ccccc1)NC(=O)c1cc(S(=O)(=O)N2CCCCC2)c[nH]1 (stereo not drawn) | inactive: 3.2% |  |
| CCCOC1CCCN(C(=O)c2ccc3oc(C(C)C)nc3c2)C1 (stereo not drawn) |  | inconclusive: 20.6 µM [cytotoxic, single point] |
| Cc1c(C(=O)OCC(=O)c2c(N)n(CC(C)C)c(=O)n(C)c2=O)oc2ccccc12 |  | inconclusive: 2.59 µM [cytotoxic, partial curve] |
| CN1CCC(=C2c3ccccc3Sc3ccccc32)CC1 |  | inconclusive: 11.6 µM [cytotoxic, partial curve] |
| O=C(COC(=O)Cc1ccsc1)Nc1ccccc1 |  | inconclusive: 16.4 µM [rising, single point] |
| Nn1c(SCC(=O)NC(=O)NCc2ccco2)nnc1-c1ccc(OC(F)F)cc1 |  | inconclusive: 16.4 µM [rising, partial curve, poor fit] |
| COc1ccccc1NC(=O)Nc1nn(C)c2cccc(N(C)C)c12 |  | inconclusive: 20.6 µM [cytotoxic, single point] |
| Cc1ccc(S(=O)(=O)Oc2ccc3ccc(O)cc3c2)cc1 |  | inconclusive: 25.9 µM [rising, single point] |
| CCOC(=O)c1ccccc1NC(=S)N1CCN(C(=O)c2ccco2)CC1 |  | inconclusive: 1.16 µM [cytotoxic, full curve] |
